Test results as given in patent publication US20200197472A1, “COSMETIC COMPOSITIONS” (Mary Kay Inc., priority 2018, published 2020).
At least one compound was matched to its structure with a doubt left.

Assays:
fibronectin = assay: Fibronectin secretion by cultured human fibroblasts (ELISA); format: cell-based
Source text: Laminin and fibronectin are major proteins in the dermal-epidermal junction (DEJ) (also referred to as the basement membrane). The DEJ is located between the dermis and the epidermis interlocks forming fingerlike projections called rete ridges. The cells of the epidermis receive their nutrients from the blood vessels in the dermis. The rete ridges increase the surface area of the epidermis that is exposed to these blood vessels and the needed nutrients. The DEJ provides adhesion of the two tissue compartments and governs the structural integrity of the skin. Laminin and fibronectin are two structural glycoproteins located in the DEJ. […] Laminin and fibronectin secretion was monitored by quantifying laminin and fibronectin in cell supernatants of cultured human fibroblasts treated for 3 days with culture medium with or without 1.0% final concentration of the test ingredient(s). Following incubation, laminin and fibronectin contents were measured using immunofluorescent antibodies directed against each protein in an enzyme linked immuno-sorbant assay (ELISA). Measurements were normalized for cellular metabolic activity, as determined by bioconversion of 3-(4,5-dimethylthiazol-2-yl)-5-(3-carboxymethoxyphenyl)-2-(4-sulfophenyl)-2H-tetrazolium (MTS).

procollagen peptide = assay: Collagen stimulation: procollagen peptide production by human epidermal fibroblasts (ELISA); format: cell-based
Source text: Collagen is an extracellular matrix protein critical for skin structure. Increased synthesis of collagen helps improve skin firmness and elasticity. This bioassay was used to examine the effect of Alpinia galangal leaf extract, dihydroxymethyl chromone, tripeptide-1, Alteromonas ferment filtrate, Pisum Sativum (pea) extract, and/or TAUT on the production of procollagen peptide (a precursor to collagen) by human epidermal fibroblasts. The endpoint of this assay was a spectrophotometric measurement that reflects the presence of procollagen peptide and cellular viability. The assay employed the quantitative sandwich enzyme immunoassay technique whereby a monoclonal antibody specific for procollagen peptide had been pre-coated onto a microplate. Standards and samples were pipetted into the wells and any procollagen peptide present was bound by the immobilized antibody. After washing away any unbound substances, an enzyme-linked polyclonal antibody specific for procollagen peptide was added to the wells. Following a wash to remove any unbound antibody-enzyme reagent, a substrate solution was added to the wells and color develops in proportion to the amount of procollagen peptide bound in the initial step using a microplate reader for detection at 450 nm. The color development was stopped and the intensity of the color was measured. […]

Cc1cc(=O)c2c(O)cc(O)cc2o1 [dihydroxymethyl chromone]
production of fibronectin (in words) (fibronectin): increases
production of collagen (in words) (procollagen peptide): increases
